Values of other authors as cited in patent publication US20110172200A1, “USE OF INHIBITOR OF BETA-LACTAMASES AND ITS COMBINATION WITH BETA-LACTAM ANTIBIOTICS” (priority 2008, published 2011).
For at least one compound, name, drawing or mass did not settle the structure.

System: AmpC
Conditions: cited from earlier work

## COCC1=C(C(=O)O)N2C(=O)[C@@H](NC(=O)/C(=N\OC)c3csc(N)n3)[C@H]2SC1 [cefpodoxime]
  kcat values of AmpC: 8 s⁻¹
